Assay results from PubChem BioAssay AID1671190 (National Center for Advancing Translational Sciences (NCATS), 2021).
Out of some 580,000 compounds screened, about 6,100 (1.1%) were called active. Inconclusive means that the source gave no clear call. Such entries were picked first, then a sample of the others. The call rests on the fitted dose curve; in most records, active means well fitted inhibition curve with a large enough effect; inconclusive means small, poorly fitted or top-dose-only effect, or another doubt; inactive means no such curve, though single readings can be large or run the other way. Potencies beside an inconclusive call are fits to weak or partial responses and may not hold up.

By UniProt entry, the sequences of proteins in these tests, tags left out. Where a name states a change or a piece, a line headed by the entry shows the natural chain unless it says otherwise.
UniProt P18054: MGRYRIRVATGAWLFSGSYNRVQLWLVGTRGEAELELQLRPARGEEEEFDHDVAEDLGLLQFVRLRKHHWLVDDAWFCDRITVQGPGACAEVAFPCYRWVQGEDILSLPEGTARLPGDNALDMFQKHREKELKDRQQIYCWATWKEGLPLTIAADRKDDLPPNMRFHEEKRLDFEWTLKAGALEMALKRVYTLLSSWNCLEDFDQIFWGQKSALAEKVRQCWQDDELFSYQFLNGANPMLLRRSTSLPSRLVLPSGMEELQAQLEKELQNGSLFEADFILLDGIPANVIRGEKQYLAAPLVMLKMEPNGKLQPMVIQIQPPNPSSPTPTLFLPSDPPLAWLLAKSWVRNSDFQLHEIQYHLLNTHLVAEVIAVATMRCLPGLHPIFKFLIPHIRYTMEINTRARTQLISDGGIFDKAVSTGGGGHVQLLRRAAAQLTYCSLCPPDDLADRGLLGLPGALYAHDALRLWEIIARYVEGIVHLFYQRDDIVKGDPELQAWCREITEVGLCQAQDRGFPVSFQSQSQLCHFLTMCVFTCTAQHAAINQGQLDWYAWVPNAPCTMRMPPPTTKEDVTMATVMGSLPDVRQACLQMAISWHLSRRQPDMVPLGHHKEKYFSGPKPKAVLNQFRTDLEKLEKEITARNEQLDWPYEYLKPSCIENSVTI

Target: Polyunsaturated fatty acid lipoxygenase ALOX12 (Homo sapiens) (UniProt P18054)
Experiment: Primary qHTS assay for inhibitors of human arachidonate 12S-lipoxygenase (ALOX12): Round 2
Conditions: purified 12hLO, xylenol orange hydroperoxide absorbance; activity change, negative = inhibition: at 108 µM (top of the series) unless noted
How it was run: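 Purified human 12hLO (150 nM final) in 25 mM Hepes, 0.01% Triton X-100, pH 7.0 was preincubated 15 min at room temperature with compound. Then 40 uM arachidonic acid was added, 30 min. Hydroperoxide was read by Fe-XO absorbance ratio 573/405 nm.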
On the % scale 0 is the no-effect control and ±100 the full control effect; potency means the concentration at half of the fitted maximal effect.

For `Cc1ccc(NC(=O)CCN2C(=O)c3ccncc3C2=O)cc1`, which Potency is on record?
Its Potency is inconclusive: 28.2 µM [inhibitor, single point].

Which Potency does the source give for `CN(Cc1ccccc1)c1cc2c(c3c1ccn3C)C1CCC2C1` (stereo not given) here?
Its Potency is inconclusive: 44.7 µM [inhibitor, partial curve, poor fit].

`CC1(C(=O)NS(=O)(=O)c2cccs2)CCN1C(=O)C1(c2ccccc2)CCCC1` (stereo not given) was tested. Which Potency did it give?
The Potency was inconclusive: 22.4 µM [inhibitor, full curve, poor fit].

How did the Potency turn out when `COc1cc(CN2CCN(C(=O)CC(C)C)CC2)c([N+](=O)[O-])cc1OC` was run?
Its Potency is inconclusive: 2.24 µM [inhibitor, full curve].

How did the Potency turn out when `COc1ccc(-c2ccc(CCC(=O)Nc3cc(Cl)ccc3OC)o2)cc1` was run?
The Potency was inconclusive: 25.1 µM [inhibitor, partial curve, poor fit].

For `Cc1cc(C)n(S(=O)(=O)c2ccc(C)c(C)c2)n1`, which Potency is on record?
Its Potency is inconclusive: 2.82 µM [inhibitor, full curve, poor fit].

For `CN(c1ccccc1)S(=O)(=O)c1cccc(NC(=O)CN2CCCc3ccccc32)c1`, which “activity change, negative = inhibition” value is on record?
The value was inactive: 10.7%.

`CNC(=S)Nc1sc2c(c1C(=O)OC)CCC2` was tested. Which Potency did it give?
Its Potency is inconclusive: 126 µM [inhibitor, partial curve, poor fit].

Which Potency does the source give for `COc1ccc(-n2cc3ccc([N+](=O)[O-])cc3n2)cc1` here?
The Potency was inconclusive: 56.2 µM [inhibitor, partial curve, poor fit].

How did the Potency turn out when `CC(Oc1ccc(Cl)cc1)C(=O)NNC(=S)NC(=O)c1ccco1` (stereo not given) was run?
The Potency was active: 44.7 µM.

How did the Potency turn out when `COc1ccc(Cc2nnc(SCC(=O)Nc3ccc(C)c(Cl)c3)[nH]c2=O)cc1` was run?
Its Potency is inconclusive: 15.8 µM [inhibitor, partial curve, poor fit].

`CC[C@H](C)[C@H](NC(=O)c1ccccc1)C(=O)O` was tested. Which Potency did it give?
The Potency was inconclusive: 89.1 µM [inhibitor, single point].

`CN(Cc1cccc(Cl)c1Cl)C(=O)CCNC(=O)c1ccco1` was tested. Which Potency did it give?
The Potency was inconclusive: 89.1 µM [inhibitor, partial curve, poor fit].

`Cc1c(CNCCc2ccc(Cl)cc2)c(C(=O)O)c(C)n1Cc1ccccc1` was tested. Which Potency did it give?
Its Potency is inconclusive: 44.7 µM [inhibitor, partial curve, poor fit].

With `O=C(CC1CCCCC1)NCC(=O)N1CCCCCCNC(=O)CC1c1ccccc1` (stereo not given) as the molecule, how does the “activity change, negative = inhibition” value read?
Its value is inactive: 14.5%.

For `COc1ccc(Oc2c(C(F)(F)F)oc3cc(OCC(=O)O)ccc3c2=O)cc1`, which Potency is on record?
Its Potency is inconclusive: 56.2 µM [inhibitor, partial curve, poor fit].

`CCOc1ccccc1NC(=O)Nc1nnc(N(CC)c2ccccc2)s1` was tested. Which “activity change, negative = inhibition” value did it give?
Its value is inactive: 0.394%.

With `CCOC(=O)c1cnc(-n2nc(C)cc2C)nc1Oc1ccc(C(=O)OC)cc1` as the molecule, how does the Potency read?
Its Potency is inconclusive: 79.4 µM [inhibitor, partial curve, poor fit].

How did the Potency turn out when `CCOC(=O)/C(N=Nc1sc(C(=O)OC)c(C)c1C(=O)OCC)=C(\O)CCl` was run?
Its Potency is inconclusive: 44.7 µM [inhibitor, partial curve, poor fit].

How did the “activity change, negative = inhibition” value turn out when `CCOC(=O)/C(C(=O)Nc1ccccc1Cl)=C1/NC(C)(C)Cc2ccccc21` was run?
The value was inactive: 7.28%.

For `Cc1ccc2c(Cl)cc(Cl)c(OCC(=O)N3CCCC3)c2n1`, which Potency is on record?
Its Potency is inconclusive: 44.7 µM [inhibitor, partial curve, poor fit].

Which Potency does the source give for `COc1ccc(Nc2ccc(N3C(=O)CCCC3=O)cc2[N+](=O)[O-])cc1OC` here?
The Potency was inconclusive: 15.8 µM [inhibitor, full curve, poor fit].

For `CC(=O)C1=C(C)NC(SCC(=O)c2ccccc2)=C(C#N)C1CC(C)C` (stereo not given), which Potency is on record?
Its Potency is active: 7.94 µM.

Which “activity change, negative = inhibition” value does the source give for `O=C(c1ccc[nH]1)N1O[C@@H]2C=C[C@H]1C2` here?
Its value is inactive: 12.7%.

`O=C(Nc1ccccc1F)c1ccc2c(c1)n(Cc1ccccc1)c(=O)c1ccnn12` was tested. Which “activity change, negative = inhibition” value did it give?
The value was inactive: -8.95%.

With `COc1ccc(-c2cn3c(n2)sc2cc(C(=O)NCCCN4CCCCCC4)ccc23)cc1` as the molecule, how does the Potency read?
The Potency was inconclusive: 5.01 µM [inhibitor, full curve, poor fit].

`Cc1cc(C)c(C)c(OCCCn2ccnc2)c1` was tested. Which Potency did it give?
Its Potency is inconclusive: 35.5 µM [inhibitor, partial curve, poor fit].

Which Potency does the source give for `Cc1sc(NC(=O)c2cccs2)c(C(N)=O)c1C` here?
Its Potency is inconclusive: 50.1 µM [inhibitor, partial curve].

Which Potency does the source give for `CSc1ccc(/C=C2/N=C(c3cccc4ccccc34)OC2=O)cc1` here?
Its Potency is inconclusive: 35.5 µM [inhibitor, partial curve, poor fit].

How did the Potency turn out when `Cc1ccc(S(=O)(=O)N2CCOCC2)cc1C(=O)Nc1cc(Cl)ccc1N1CCOCC1` was run?
The Potency was inconclusive: 56.2 µM [inhibitor, partial curve, poor fit].

Which Potency does the source give for `CCOC(=O)c1ccc(NC(=O)NCc2nc(-c3ccccc3)oc2C)cc1` here?
The Potency was inconclusive: 112 µM [inhibitor, partial curve, poor fit].

With `CC(C(=O)Nc1cc(C(F)(F)F)ccc1Cl)n1nnc2sc3c(c2c1=O)CCCC3` (stereo not given) as the molecule, how does the “activity change, negative = inhibition” value read?
The value was inactive: -6.72%.

How did the Potency turn out when `O=C(NNc1ccc(Cl)cc1)c1cccs1` was run?
The Potency was inconclusive: 31.6 µM [inhibitor, partial curve, poor fit].

How did the “activity change, negative = inhibition” value turn out when `COc1ccc(-c2ccc3c(c2)C(=O)N2CCN(C(=O)COCC(=O)O)C[C@@H]2C(=O)N3)c(OC)c1` was run?
Its value is inactive: -1.59%.

For `COc1ccc(OC)c(/C=N\NC(=O)c2c(C)nc3cc(C)ccn23)c1`, which Potency is on record?
The Potency was inconclusive: 31.6 µM [inhibitor, partial curve, poor fit].

`O=C(O)c1cccc(S(=O)(=O)Nc2ccccc2C(=O)NCCc2ccccc2)c1` was tested. Which Potency did it give?
Its Potency is inconclusive: 89.1 µM [inhibitor, partial curve, poor fit].

Which Potency does the source give for `O=C(c1cnccn1)N1CC(=O)N2[C@@H](CO)[C@H](c3ccc(Br)cc3)[C@@H]2C1` here?
The Potency was active: 10 µM.

How did the “activity change, negative = inhibition” value turn out when `CC(=O)c1cccc(NC(=O)C(C)Sc2ccccc2Cl)c1` (stereo not given) was run?
The value was inactive: -25.5%.

Which Potency does the source give for `O=C(Nc1ccc(Nc2cccnc2)cc1)c1c[nH]c2ccccc12` here?
Its Potency is inconclusive: 50.1 µM [inhibitor, partial curve, poor fit].

How did the Potency turn out when `Cc1ccc(NC(=O)CCc2nc3ccccc3c(=O)[nH]2)cc1S(=O)(=O)N1CCOCC1` was run?
The Potency was inconclusive: 112 µM [inhibitor, single point].

With `CC(C)Cc1cnc2c(c1SCC(=O)NC(C)C)c(=O)n(C)c(=O)n2C` as the molecule, how does the Potency read?
Its Potency is inconclusive: 44.7 µM [inhibitor, partial curve, poor fit].

`COc1ccccc1Nc1nc(N)nc(CN2CCOCC2)n1` was tested. Which Potency did it give?
The Potency was inconclusive: 28.2 µM [inhibitor, single point].

With `CCOc1ccccc1C(=O)Oc1c(Sc2ccccc2)c(C)nn1C(C)(C)C` as the molecule, how does the Potency read?
Its Potency is inconclusive: 112 µM [inhibitor, partial curve, poor fit].

For `COc1ccc(N2C(=S)NC(C)(C)CC2(C)c2ccc(OC(C)=O)cc2OC(C)=O)cc1` (stereo not given), which Potency is on record?
Its Potency is inconclusive: 50.1 µM [inhibitor, partial curve, poor fit].

For `Cc1ccc(S(=O)(=O)N2CCCN(Cc3nc4ccccc4c(=O)[nH]3)CC2)cc1`, which Potency is on record?
The Potency was inconclusive: 35.5 µM [inhibitor, partial curve, poor fit].

Which Potency does the source give for `COc1ccc(S(=O)(=O)N2CCn3cccc3C2c2ccccc2)cc1` (stereo not given) here?
Its Potency is inconclusive: 50.1 µM [inhibitor, full curve, poor fit].

With `C=C(C)Cc1c(C)c(C#N)c2nc3ccccc3n2c1NCCCN(C)C` as the molecule, how does the Potency read?
The Potency was inconclusive: 89.1 µM [inhibitor, partial curve, poor fit].

For `O=c1c2ccccc2nc2n1CCC2`, which Potency is on record?
The Potency was inconclusive: 31.6 µM [inhibitor, partial curve, poor fit].

For `O=C(Nc1ccc(F)cc1F)N1CCCN(c2ccc([N+](=O)[O-])cn2)CC1`, which “activity change, negative = inhibition” value is on record?
The value was inactive: 146%.

`CC(C)C(=O)NC(=S)Nc1ccccn1` was tested. Which Potency did it give?
The Potency was inconclusive: 44.7 µM [inhibitor, partial curve, poor fit].

Which Potency does the source give for `CC1=CS(=O)(=O)CC1Sc1nc2ccccc2[nH]1` (stereo not given) here?
Its Potency is inconclusive: 5.62 µM [inhibitor, full curve, poor fit].

For `COc1ccc(/C=C2\SC(=S)N(C(Cc3ccccc3)C(=O)O)C2=O)cc1` (stereo not given), which Potency is on record?
Its Potency is active: 17.8 µM.

`Cc1ccccc1NC(=O)c1ccc(C)c(S(=O)(=O)N2CCN(C)CC2)c1` was tested. Which “activity change, negative = inhibition” value did it give?
Its value is inactive: -9.83%.

How did the “activity change, negative = inhibition” value turn out when `Cc1ccc(OCC(O)Cn2nnc(-c3cccnc3)n2)c(C)c1` (stereo not given) was run?
Its value is inactive: 2.28%.

`CCc1ccc(NC(=O)C2CCN(C(=O)N3CCOc4ccccc43)CC2)cc1` was tested. Which “activity change, negative = inhibition” value did it give?
The value was inactive: -10.9% [at 57.4 µM].

How did the “activity change, negative = inhibition” value turn out when `CCCn1c(C(O)c2cc(OC)c(OC)c(OC)c2)nc2ccccc21` (stereo not given) was run?
The value was inactive: 1.4%.

How did the “activity change, negative = inhibition” value turn out when `Cc1ccc(CNC(=O)C2CCCN(c3cnn(C)c(=O)c3)C2)cc1` (stereo not given) was run?
The value was inactive: 54.3%.

Which Potency does the source give for `O=C(O)/C=C/C(=O)Nc1ccccc1SC(F)(F)F` here?
Its Potency is inconclusive: 141 µM [inhibitor, single point].

With `Cn1cccc1/C=C(/C#N)C(N)=S` as the molecule, how does the Potency read?
Its Potency is inconclusive: 22.4 µM [inhibitor, partial curve].

Which “activity change, negative = inhibition” value does the source give for `CC(C)(C)c1nnc(N/N=C/c2ccc(Br)cc2)n(N)c1=O` here?
The value was inactive: 26.2%.

Which “activity change, negative = inhibition” value does the source give for `Cc1nc2ccc(S(=O)(=O)Nc3cccc(-c4nc5cccnc5s4)c3C)cc2s1` here?
Its value is inactive: 1.94%.

How did the Potency turn out when `C#CCCOC(=O)N1C2=NC(C(=O)OC)=C(C(=O)OC)[C@@H]3N(CC=C)c4ccccc4[C@]23C[C@H]1C(=O)OC` was run?
The Potency was inconclusive: 0.891 µM [inhibitor, full curve, poor fit].

`N#Cc1c(NC(=O)CSc2nc(N)cc(=O)[nH]2)sc2c1CCCCCC2` was tested. Which “activity change, negative = inhibition” value did it give?
Its value is inactive: 6.48%.

Which Potency does the source give for `CCOC(=O)c1ccc[n+](CC(=O)Nc2ccccc2OC(F)F)c1` here?
The Potency was inconclusive: 44.7 µM [inhibitor, partial curve, poor fit].

Which Potency does the source give for `O=C(O)c1ccc(N/N=C2/CCSc3ccc(F)cc32)cc1` here?
Its Potency is inconclusive: 112 µM [inhibitor, partial curve, poor fit].
